Measurements taken from patent publication US20060068386A1, “Complete genome and protein sequence of the hyperthermophile methanopyrus kandleri av19 and monophyly of archael methanogens and methods of use thereof” (priority 2002, published 2006).
Protein sequences can lack the tags named with them.

Columns and labels:
[1] = biological target: T1, Fen1 (5'-3' exonuclease, MK0566) (Methanopyrus kandleri AV19) (UniProt Q8TXU4); experiment: enzyme reaction in vitro; conditions: 1 mM Mn2+, 55 C, 10 min; purified recombinant protein; protein details: additional Met at N-terminus, pET21d in E. coli; label: 5'-fluorescein; folded or branched DNA
T1 sequence (limits assumed): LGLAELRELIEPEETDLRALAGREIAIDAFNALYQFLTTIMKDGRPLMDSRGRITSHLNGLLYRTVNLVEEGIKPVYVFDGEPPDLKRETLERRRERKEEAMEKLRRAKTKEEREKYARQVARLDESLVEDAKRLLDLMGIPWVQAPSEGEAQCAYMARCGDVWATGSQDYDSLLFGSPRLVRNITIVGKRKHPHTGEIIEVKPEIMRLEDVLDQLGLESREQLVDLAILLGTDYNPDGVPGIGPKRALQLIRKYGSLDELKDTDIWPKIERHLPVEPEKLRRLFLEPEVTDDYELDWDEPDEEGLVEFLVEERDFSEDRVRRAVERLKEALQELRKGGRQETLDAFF

[2] = tested on: T2, DNA polymerase PolB (family B, MK1039) (Methanopyrus kandleri AV19); experiment: enzyme reaction in vitro; conditions: 3'-5' exonuclease; cleaves off only 9 nt, 13-nt primer shortest substrate; purified recombinant protein; protein details: Met-Gly at N-terminus, pET21d in E. coli; label: 5'-fluorescein; single-stranded DNA
T2 sequence (limits assumed): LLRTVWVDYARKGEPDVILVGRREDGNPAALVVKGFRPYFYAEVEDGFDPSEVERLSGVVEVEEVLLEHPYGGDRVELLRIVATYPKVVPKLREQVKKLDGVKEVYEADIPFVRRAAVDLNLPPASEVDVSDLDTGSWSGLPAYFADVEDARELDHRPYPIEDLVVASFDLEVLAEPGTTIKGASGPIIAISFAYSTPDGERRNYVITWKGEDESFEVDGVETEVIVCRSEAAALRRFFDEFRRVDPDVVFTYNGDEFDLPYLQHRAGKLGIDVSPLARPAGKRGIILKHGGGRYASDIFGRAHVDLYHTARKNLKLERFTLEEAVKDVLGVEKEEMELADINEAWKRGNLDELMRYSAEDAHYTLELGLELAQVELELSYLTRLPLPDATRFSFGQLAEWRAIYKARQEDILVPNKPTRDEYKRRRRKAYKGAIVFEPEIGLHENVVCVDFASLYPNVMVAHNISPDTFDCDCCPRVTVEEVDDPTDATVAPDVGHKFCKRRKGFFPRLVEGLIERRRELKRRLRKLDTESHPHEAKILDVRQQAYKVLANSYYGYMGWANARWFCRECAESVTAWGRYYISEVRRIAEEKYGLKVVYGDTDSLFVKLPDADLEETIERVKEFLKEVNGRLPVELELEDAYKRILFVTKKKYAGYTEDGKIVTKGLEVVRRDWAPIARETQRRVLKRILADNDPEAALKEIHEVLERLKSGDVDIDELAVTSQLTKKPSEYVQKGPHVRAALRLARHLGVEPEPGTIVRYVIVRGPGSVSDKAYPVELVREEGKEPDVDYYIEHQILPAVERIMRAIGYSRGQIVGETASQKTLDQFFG

Row | Sequence | activity on this sequence [1] | activity on this sequence [2]
1 | CTATAGGGAGACCGGAATTCGAGCTCGCCCGGGCGAGCTCGAATTCCGTGTATTTATA [Fen1 substrate oligonucleotide (APAV0062)] | active | 
2 | GTAATACGACTCACTATAGGG [fluorescent primer for exonuclease assay] |  | active
